Earlier results in US20040117125A1, “Drug discovery method and apparatus” (priority 1999, published 2004).
At least one structure is not confirmed: it was looked up by name or label, or the drawing left a doubt.

Test system: MPTP-treated monkeys
Settings: combined with L-Dopa or selective dopamine agonists (D1 or D2); cited from earlier work

## CCn1c(=O)c2c(nc(/C=C/c3ccc(OC)c(OC)c3)n2C)n(CC)c1=O [KW-6002]
  antiparkinsonian effect: potentiate the antiparkinsonian effect
